Results: the supplement of paper PMC8728848
This is one part of the list.

Key:
Test in all cases: glycan array binding signal (z-score within array); higher = stronger binding
Conditions in all cases: glycan notation: IUPAC condensed, linker removed
[1] = target: GlcNAc(b1-3)Gal(b1-4)GlcNAc(b1-3)Gal(b1-4)GlcNAc
Method in brief: (§1)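 Negative Z-scores can be read as non-binding. The Z-score is calculated within each array and then averaged across arrays of one protein sequence at different concentrations or buffers and across linkers. Arrays, 3228 in all, were curated from the Consortium for Functional Glycomics database and kept only where the protein sequence was available.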

[2] = target: GlcNAc(b1-3)GalNAc
Method in brief: as §1

[3] = target: GlcNAc(b1-3)Man
Method in brief: as §1

[4] = target: GlcNAc(b1-3)[GlcNAc(b1-4)][GlcNAc(b1-6)]GlcNAc
Method in brief: as §1

[5] = target: GlcNAc(b1-3)[GlcNAc(b1-6)]Gal(b1-4)GlcNAc
Method in brief: as §1

[6] = target: GlcNAc(b1-3)[GlcNAc(b1-6)]GalNAc
Method in brief: as §1

[7] = target: GlcNAc(b1-4)Gal(b1-4)GlcNAc
Method in brief: as §1

[8] = target: GlcNAc(b1-4)GlcNAc
Method in brief: as §1

[9] = target: GlcNAc(b1-4)GlcNAc(b1-4)GlcNAc
Method in brief: as §1

[10] = target: GlcNAc(b1-4)GlcNAc(b1-4)GlcNAc(b1-4)GlcNAc(b1-4)GlcNAc
Method in brief: as §1

[11] = target: GlcNAc(b1-4)GlcNAc(b1-4)GlcNAc(b1-4)GlcNAc(b1-4)GlcNAc(b1-4)GlcNAc
Method in brief: as §1

[12] = target: GlcNAc(b1-4)[GlcNAc(b1-6)]GalNAc
Method in brief: as §1

[13] = target: GlcNAc(b1-6)Gal(b1-4)GlcNAc
Method in brief: as §1

[14] = target: GlcNAc(b1-6)GalNAc
Method in brief: as §1

[15] = target: GlcNAc3Prop(b1-4)GlcNAc
Method in brief: as §1

[16] = target: GlcNAc6S(b1-3)Gal(b1-4)GlcNAc
Method in brief: as §1

[17] = target: Kdn(a2-3)Gal(b1-3)GalNAc
Method in brief: as §1

[18] = target: Kdn(a2-3)Gal(b1-3)GlcNAc
Method in brief: as §1

[19] = target: Kdn(a2-3)Gal(b1-4)Glc
Method in brief: as §1

[20] = target: Kdn(a2-3)Gal(b1-4)GlcNAc
Method in brief: as §1

[21] = target: Kdn(a2-3)Gal(b1-4)[Fuc(a1-3)]GlcNAc
Method in brief: as §1

[22] = target: Kdn(a2-6)Gal(b1-4)GlcNAc
Method in brief: as §1

[23] = target: Man(a1-2)Man(a1-2)Man(a1-3)Man
Method in brief: as §1

[24] = target: Man(a1-2)Man(a1-2)Man(a1-6)[Man(a1-3)]Man
Method in brief: as §1

[25] = target: Man(a1-2)Man(a1-3)Man
Method in brief: as §1

[26] = target: Man(a1-2)Man(a1-3)[Man(a1-2)Man(a1-6)]Man
Method in brief: as §1

[27] = target: Man(a1-2)Man(a1-3)[Man(a1-2)Man(a1-6)]Man(a1-6)[Man(a1-2)Man(a1-2)Man(a1-3)]Man
Method in brief: as §1

[28] = target: Man(a1-2)Man(a1-3)[Man(a1-2)Man(a1-6)]Man(a1-6)[Man(a1-2)Man(a1-2)Man(a1-3)]Man(b1-4)GlcNAc(b1-4)GlcNAc
Method in brief: as §1

[29] = target: Man(a1-2)Man(a1-3)[Man(a1-6)]Man(a1-6)[Man(a1-2)Man(a1-3)]Man(b1-4)GlcNAc(b1-4)GlcNAc
Method in brief: as §1

[30] = target: Man(a1-2)Man(a1-6)[Man(a1-3)]Man(a1-6)[Man(a1-2)Man(a1-2)Man(a1-3)]Man
Method in brief: as §1

[31] = target: Man(a1-2)Man(a1-6)[Man(a1-3)]Man(a1-6)[Man(a1-2)Man(a1-2)Man(a1-3)]Man(b1-4)GlcNAc(b1-4)GlcNAc
Method in brief: as §1

[32] = target: Man(a1-3)[Man(a1-6)]Man
Method in brief: as §1

[33] = target: Man(a1-3)[Man(a1-6)]Man(a1-6)[Man(a1-2)Man(a1-3)]Man(b1-4)GlcNAc(b1-4)GlcNAc
Method in brief: as §1

[34] = target: Man(a1-3)[Man(a1-6)]Man(a1-6)[Man(a1-3)]Man
Method in brief: as §1

[35] = target: Man(a1-3)[Man(a1-6)]Man(a1-6)[Man(a1-3)]Man(b1-4)GlcNAc(b1-4)GlcNAc
Method in brief: as §1

[36] = target: Man(a1-3)[Man(a1-6)]Man(b1-4)GlcNAc(b1-4)GlcNAc
Method in brief: as §1

[37] = target: Man(a1-6)Man
Method in brief: as §1

B1: SAG1 (Toxoplasma gondii), P13664 (protein)
chain: MSVSLHHFIISSGFLTSMFPKAVRRAVTAGVFAAPTLMSFLRCGVMASDPPLVANQVVTCPDKKSTAAVILTPTENHFTLKCPKTALTEPPTLAYSPNRQICPAGTTSSCTSKAVTLSSLIPEAEDSWWTGDSASLDTAGIKLTVPIEKFPVTTQTFVVGCIKGDDAQSCMVTVTVQARASSVVNNVARCSYGADSTLGPVKLSAEGPTTMTLVCGKDGVKVPQDNNQYCSGTTLTGCNEKSFKDILPKLTENPWQGNASSDKGATLTIKKEAFPAESKSVIIGCTGGSPEKHHCTVKLEFAGAAGSAKSAAGTASHVSIFAMVIGLIGSIAACVA
- glycan array binding signal (z-score) [1]: -0.287
- glycan array binding signal (z-score) [2]: -0.232
- glycan array binding signal (z-score) [3]: -0.457
- glycan array binding signal (z-score) [4]: -0.444
- glycan array binding signal (z-score) [5]: -0.701
- glycan array binding signal (z-score) [6]: -0.405
- glycan array binding signal (z-score) [7]: -1.12
- glycan array binding signal (z-score) [8]: -0.717
- glycan array binding signal (z-score) [9]: -0.764
- glycan array binding signal (z-score) [10]: -0.745
- glycan array binding signal (z-score) [11]: -0.674
- glycan array binding signal (z-score) [12]: 0.017
- glycan array binding signal (z-score) [13]: -1.12
- glycan array binding signal (z-score) [14]: -0.384
- glycan array binding signal (z-score) [15]: -0.588
- glycan array binding signal (z-score) [16]: -0.139
- glycan array binding signal (z-score) [17]: 0.938
- glycan array binding signal (z-score) [18]: -0.737
- glycan array binding signal (z-score) [19]: 0.393
- glycan array binding signal (z-score) [20]: -0.051
- glycan array binding signal (z-score) [21]: -0.429
- glycan array binding signal (z-score) [22]: 0.139
- glycan array binding signal (z-score) [23]: -0.604
- glycan array binding signal (z-score) [24]: 0.319
- glycan array binding signal (z-score) [25]: -0.315
- glycan array binding signal (z-score) [26]: 0.125
- glycan array binding signal (z-score) [27]: -0.757
- glycan array binding signal (z-score) [28]: 0.212
- glycan array binding signal (z-score) [29]: -0.334
- glycan array binding signal (z-score) [30]: -0.527
- glycan array binding signal (z-score) [31]: -0.129
- glycan array binding signal (z-score) [32]: -0.088
- glycan array binding signal (z-score) [33]: 0.422
- glycan array binding signal (z-score) [34]: -0.442
- glycan array binding signal (z-score) [35]: 0.667
- glycan array binding signal (z-score) [36]: -0.356
- glycan array binding signal (z-score) [37]: -0.539
